From article PMC9120069
Results are given in words; binding and its absence hold for the method and conditions named. In cells and extracts the contact can be indirect. These calls come from enrichment with a bait or labelling near it, and not all partners need be listed.

The chains behind the UniProt entries cited, without tags or fusion partners. Residues count along the entry.
UniProt Q8NE86, residues 51-351: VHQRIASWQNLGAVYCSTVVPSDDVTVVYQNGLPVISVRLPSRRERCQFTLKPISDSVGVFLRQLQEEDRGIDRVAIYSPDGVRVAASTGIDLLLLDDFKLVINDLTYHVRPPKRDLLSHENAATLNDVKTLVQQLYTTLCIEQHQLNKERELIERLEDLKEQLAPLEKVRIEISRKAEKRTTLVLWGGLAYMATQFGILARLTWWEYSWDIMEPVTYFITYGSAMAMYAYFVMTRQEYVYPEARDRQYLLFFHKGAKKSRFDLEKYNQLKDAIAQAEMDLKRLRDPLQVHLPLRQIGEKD
UniProt O95167: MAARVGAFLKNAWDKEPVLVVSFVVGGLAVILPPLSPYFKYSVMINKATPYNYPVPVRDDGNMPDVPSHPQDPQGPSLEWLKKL
UniProt P51970: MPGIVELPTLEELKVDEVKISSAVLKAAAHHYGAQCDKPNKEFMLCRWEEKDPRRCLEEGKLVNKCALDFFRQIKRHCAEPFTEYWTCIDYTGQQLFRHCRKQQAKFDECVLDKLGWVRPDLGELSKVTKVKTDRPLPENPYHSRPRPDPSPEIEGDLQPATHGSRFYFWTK
UniProt Q9P0J0: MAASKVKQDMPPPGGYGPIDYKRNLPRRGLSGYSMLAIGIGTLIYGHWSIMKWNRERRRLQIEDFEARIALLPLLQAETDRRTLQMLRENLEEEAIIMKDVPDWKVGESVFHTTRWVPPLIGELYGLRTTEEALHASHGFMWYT

target: Flag-tagged MCU (pore-forming subunit of the mitochondrial calcium uniporter) (UniProt Q8NE86); test: affinity purification with mass spectrometry; FLAG antibody beads on cleared lysates of HEK293T cells stably expressing MCU-Flag; 1% digitonin, 50 mM Tris, 150 mM NaCl; overnight at 4 °C; eluted in 2% SDS; six MCU-Flag samples and four non-transduced control samples

binding, binds:
NDUFA3 (from UniProt O95167 1-84)
NDUFA8 (from UniProt P51970 1-172)
NDUFA13 (from UniProt Q9P0J0 1-144)
